PMC4231735

The chains behind the UniProt entries cited, without tags or fusion partners.
UniProt P40160: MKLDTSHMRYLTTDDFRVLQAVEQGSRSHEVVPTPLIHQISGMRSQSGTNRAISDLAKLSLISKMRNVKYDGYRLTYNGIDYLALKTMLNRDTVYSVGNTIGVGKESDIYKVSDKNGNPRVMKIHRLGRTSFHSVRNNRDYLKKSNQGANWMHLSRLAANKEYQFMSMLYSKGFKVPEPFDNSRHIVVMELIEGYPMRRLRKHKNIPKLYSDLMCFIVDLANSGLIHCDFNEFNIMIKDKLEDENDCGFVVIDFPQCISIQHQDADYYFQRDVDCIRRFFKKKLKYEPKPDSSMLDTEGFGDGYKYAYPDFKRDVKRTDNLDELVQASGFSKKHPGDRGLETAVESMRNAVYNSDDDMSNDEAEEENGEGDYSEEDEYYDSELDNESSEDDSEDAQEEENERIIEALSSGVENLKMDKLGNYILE

T1: HTP-tagged Rio1 (S. cerevisiae), Q12196
T1 chain: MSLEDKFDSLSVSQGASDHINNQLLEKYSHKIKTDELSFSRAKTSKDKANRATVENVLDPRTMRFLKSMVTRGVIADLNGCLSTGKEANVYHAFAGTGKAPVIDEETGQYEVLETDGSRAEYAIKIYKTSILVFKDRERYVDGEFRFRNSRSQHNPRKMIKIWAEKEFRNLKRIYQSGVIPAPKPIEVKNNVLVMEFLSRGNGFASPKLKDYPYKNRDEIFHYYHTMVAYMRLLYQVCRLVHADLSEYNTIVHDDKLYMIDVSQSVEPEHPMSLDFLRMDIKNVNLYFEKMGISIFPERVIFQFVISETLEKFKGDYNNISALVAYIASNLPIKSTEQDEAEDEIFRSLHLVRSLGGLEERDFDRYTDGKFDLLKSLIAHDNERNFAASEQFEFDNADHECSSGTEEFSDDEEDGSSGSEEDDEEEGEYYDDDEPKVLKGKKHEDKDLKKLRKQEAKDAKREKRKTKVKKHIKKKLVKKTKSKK

B1: Nob1, Q08444 1-459 (protein)
chain: MTENQTAHVRALILDATPLITQSYTHYQNYAQSFYTTPTVFQEIKDAQARKNLEIWQSLGTLKLVHPSENSIAKVSTFAKLTGDYSVLSANDLHILALTYELEIKLNNGDWRLRKKPGDALDASKADVGTDGKQKLTEDNKKEEDSESVPKKKNKRRGGKKQKAKREAREAREAENANLELESKAEEHVEEAGSKEQICNDENIKESSDLNEVFEDADDDGDWITPENLTEAIIKDSGEDTTGSLGVEASEEDRHVALNRPENQVALATGDFAVQNVALQMNLNLMNFMSGLKIKRIRNYMLRCHACFKIFPLPKDGKPKHFCASCGGQGTLLRCAVSVDSRTGNVTPHLKSNFQWNNRGNRYSVASPLSKNSQKRYGKKGHVHSKPQENVILREDQKEYEKVIKQEEWTRRHNEKILNNWIGGGSADNYISPFAITGLKQHNVRIGKGRYVNSSKRRS
B2: Dim2, Q99216 1-274 (protein)
chain: MVAPTALKKATVTPVSGQDGGSSRIIGINNTESIDEDDDDDVLLDDSDNNTAKEEVEGEEGSRKTHESKTVVVDDQGKPRFTSASKTQGNKIKFESRKIMVPPHRMTPLRNSWTKIYPPLVEHLKLQVRMNLKTKSVELRTNPKFTTDPGALQKGADFIKAFTLGFDLDDSIALLRLDDLYIETFEVKDVKTLTGDHLSRAIGRIAGKDGKTKFAIENATRTRIVLADSKIHILGGFTHIRMARESVVSLILGSPPGKVYGNLRTVASRLKERY
B3: Rio1 (protein, UniProt Q12196 1-484)
chain: MSLEDKFDSLSVSQGASDHINNQLLEKYSHKIKTDELSFSRAKTSKDKANRATVENVLDPRTMRFLKSMVTRGVIADLNGCLSTGKEANVYHAFAGTGKAPVIDEETGQYEVLETDGSRAEYAIKIYKTSILVFKDRERYVDGEFRFRNSRSQHNPRKMIKIWAEKEFRNLKRIYQSGVIPAPKPIEVKNNVLVMEFLSRGNGFASPKLKDYPYKNRDEIFHYYHTMVAYMRLLYQVCRLVHADLSEYNTIVHDDKLYMIDVSQSVEPEHPMSLDFLRMDIKNVNLYFEKMGISIFPERVIFQFVISETLEKFKGDYNNISALVAYIASNLPIKSTEQDEAEDEIFRSLHLVRSLGGLEERDFDRYTDGKFDLLKSLIAHDNERNFAASEQFEFDNADHECSSGTEEFSDDEEDGSSGSEEDDEEEGEYYDDDEPKVLKGKKHEDKDLKKLRKQEAKDAKREKRKTKVKKHIKKKLVKKTKSKK

Experiments:
[1] = target: T1, HTP-tagged Rio1 (S. cerevisiae), Q12196; assay: affinity purification with mass spectrometry; HTP-tagged bait purified from yeast by a fast IgG affinity purification protocol; associated proteins quantified by label-free LC-MS; two (Rio2) or three (Rio1) replicates; details: remark: other sources report otherwise
[2] = target: HTP-tagged Rio2 (S. cerevisiae) (UniProt P40160); assay: as above

Row | Binder | binding [1] | binding [2]
1 | B1 | binds | 
2 | B2 | binds | 
3 | B3 |  | no binding

These are yes or no findings as the source states them, for the method shown. Binding seen in cells or lysates may run through a third protein. A yes stands for co-enrichment or nearness to the bait. Other partners may have been found. For part of these data: A no says only that the protein was not detected with the bait. For part of these data: Where a sequence is shown, tags or fusion partners need not be part of it.
